Measurements reported in PubChem BioAssay AID1224827 (NIAID, 2016)
Aim: 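Identify regulators of the macrophage TNF-alpha response to bacterial LPS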 (follow-up of hits). Cells: RAW264.7 G9 mouse macrophage reporter clone. Reagent: single siRNA against mouse genes, 100 nM siRNA. Time to read-out: siRNA for 2 days, then LPS about 16 h. Treatment: bacterial lipopolysaccharide (LPS), 10 ng/ml, cells fixed after overnight (about 16 h) stimulation. Detection: 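TNF promoter reporter red fluorescence in nuclei, background subtracted, normalised per plate and to non-targeting control siRNA, as z-scores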. Scale: TNF reporter z-score, mean and TNF reporter z-score: higher = stronger Tnf promoter reporter signal; gene median z, three same-vendor siRNAs: higher = stronger Tnf reporter signal for the gene. Call rule: 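An siRNA is called active when its mean z-score over replicates is at least +2 or at most -2; control wells get no call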.
In all, the deposit lists about 3,800 reagents; below is a random part of them. About 2,200 of them (57%) were called active. 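Active means a strong reporter change in either direction; calls are per siRNA, not per gene; qiagen siRNAs gave weaker effects.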 Unmarked entries are inactive. The numbers tell different reagents against one gene apart. Further read-outs or replicates are left out here. Reagent sequences are not shown.

no.	gene	reagent no.	TNF reporter z-score, mean	gene median z, three same-vendor siRNAs	TNF reporter z-score, repeat 1
1	Brpf1 (bromodomain and PHD finger containing, 1)	1	4.92 (active)	-1.99	2.39
2	Brpf1 (bromodomain and PHD finger containing, 1)	2	-1.99	-1.99	-1.47
3	Brpf1 (bromodomain and PHD finger containing, 1)	3	-4.89 (active)	-1.99	-4.76
4	Brpf1 (bromodomain and PHD finger containing, 1)	4	-0.131	-2.42	1.97
5	Brpf1 (bromodomain and PHD finger containing, 1)	5	-2.42 (active)	-2.42	-2.36
6	Brpf1 (bromodomain and PHD finger containing, 1)	6	-3.39 (active)	-2.42	-3.78
7	Zscan21 (zinc finger and SCAN domain containing 21)	1	-2.17 (active)	-3.76	-2.18
8	Zscan21 (zinc finger and SCAN domain containing 21)	2	-4.09 (active)	-3.76	-3.54
9	Zscan21 (zinc finger and SCAN domain containing 21)	3	-4.09 (active)	-3.76	-4.2
10	Zscan21 (zinc finger and SCAN domain containing 21)	4	1.52	-0.54	3.31
11	Zscan21 (zinc finger and SCAN domain containing 21)	5	0.4	-0.54	1.85
12	Zscan21 (zinc finger and SCAN domain containing 21)	6	-1.48	-0.54	-0.817
13	Cebpd (CCAAT/enhancer binding protein delta)	1	-2.93 (active)	-3.21	-3.28
14	Cebpd (CCAAT/enhancer binding protein delta)	2	-3.1 (active)	-3.21	-3.28
15	Cebpd (CCAAT/enhancer binding protein delta)	3	-3.52 (active)	-3.21	-3.14
16	Cebpd (CCAAT/enhancer binding protein delta)	4	2.53 (active)	0.192	4.86
17	Cebpd (CCAAT/enhancer binding protein delta)	5	1.44	0.192	2.7
18	Cebpd (CCAAT/enhancer binding protein delta)	6	-0.789	0.192	-0.52
19	Camk1d (calcium/calmodulin-dependent protein kinase ID)	1	-1.81	-1.91	-2.04
20	Camk1d (calcium/calmodulin-dependent protein kinase ID)	2	-2.36 (active)	-1.91	-2.94
21	Camk1d (calcium/calmodulin-dependent protein kinase ID)	3	-2.5 (active)	-1.91	-3.96
22	Cubn (cubilin)	1	-2.19 (active)	-2.56	-2.53
23	Cubn (cubilin)	2	-2.42 (active)	-2.56	-2.59
24	Cubn (cubilin)	3	-3.06 (active)	-2.56	-2.83
25	Flvcr1 (feline leukemia virus subgroup C cellular receptor 1)	1	5.02 (active)	2.1	7.71
26	Flvcr1 (feline leukemia virus subgroup C cellular receptor 1)	2	3.7 (active)	2.1	6.12
27	Flvcr1 (feline leukemia virus subgroup C cellular receptor 1)	3	0.0338	2.1	1.88
28	Ikzf1 (IKAROS family zinc finger 1)	1	-3.69 (active)	-5.18	-4.12
29	Ikzf1 (IKAROS family zinc finger 1)	2	-5.22 (active)	-5.18	-5
30	Ikzf1 (IKAROS family zinc finger 1)	3	-5.94 (active)	-5.18	-5.36
31	Ikzf1 (IKAROS family zinc finger 1)	4	1.42	-1.86	3.58
32	Ikzf1 (IKAROS family zinc finger 1)	5	-1.86	-1.86	-2.51
33	Ikzf1 (IKAROS family zinc finger 1)	6	-3.82 (active)	-1.86	-4.71
34	Dync1i2 (dynein cytoplasmic 1 intermediate chain 2)	1	1.58	-2.48	0.337
35	Dync1i2 (dynein cytoplasmic 1 intermediate chain 2)	2	-2.48 (active)	-2.48	-2.9
36	Dync1i2 (dynein cytoplasmic 1 intermediate chain 2)	3	-4.64 (active)	-2.48	-4.56
37	Dync1i2 (dynein cytoplasmic 1 intermediate chain 2)	4	-0.57	-1.29	-0.0198
38	Dync1i2 (dynein cytoplasmic 1 intermediate chain 2)	5	-1.37	-1.29	-2.07
39	Dync1i2 (dynein cytoplasmic 1 intermediate chain 2)	6	-1.47	-1.29	-1.47
40	Lhfpl4 (lipoma HMGIC fusion partner-like protein 4)	1	-2.25 (active)	-3.72	-2.4
41	Lhfpl4 (lipoma HMGIC fusion partner-like protein 4)	2	-3.94 (active)	-3.72	-4.43
42	Lhfpl4 (lipoma HMGIC fusion partner-like protein 4)	3	-4.52 (active)	-3.72	-3.99
43	Lhfpl4 (lipoma HMGIC fusion partner-like protein 4)	4	3.08 (active)	1.08	4.51
44	Lhfpl4 (lipoma HMGIC fusion partner-like protein 4)	5	2.48 (active)	1.08	4.45
45	Lhfpl4 (lipoma HMGIC fusion partner-like protein 4)	6	-0.952	1.08	0.213
46	Klra22 (killer cell lectin-like receptor subfamily A, member 22)	1	-2.36 (active)	-3.29	-3.2
47	Klra22 (killer cell lectin-like receptor subfamily A, member 22)	2	-2.47 (active)	-3.29	-3.38
48	Klra22 (killer cell lectin-like receptor subfamily A, member 22)	3	-3.83 (active)	-3.29	-3.49
49	Klra22 (killer cell lectin-like receptor subfamily A, member 22)	4	1.14	-0.164	2.47
50	Klra22 (killer cell lectin-like receptor subfamily A, member 22)	5	-0.232	-0.164	-0.137
51	Klra22 (killer cell lectin-like receptor subfamily A, member 22)	6	-0.389	-0.164	0.0934
52	Mcoln2 (mucolipin 2)	1	-2.06 (active)	-3.49	-3.41
53	Mcoln2 (mucolipin 2)	2	-3.22 (active)	-3.49	-3.56
54	Mcoln2 (mucolipin 2)	3	-4.58 (active)	-3.49	-4.35
55	Mcoln2 (mucolipin 2)	4	0.996	-0.98	2.88
56	Mcoln2 (mucolipin 2)	5	-0.0823	-0.98	1.5
57	Mcoln2 (mucolipin 2)	6	-1.35	-0.98	-1.07
